According to patent US12486489B2, “Culture medium for testing drug resistance of H.pylori as well as preparation method and use thereof” (priority 2022, dated 2025):
At least one structure is not confirmed: it was looked up by name or label, or the drawing left a doubt.

Columns and labels:
H. pylori [1] = assay: Drug resistance testing of laboratory strains on characteristic culture medium (discoloration after 36 hours); type: cell-based, Helicobacter pylori
Procedure: The characteristic culture media (A, B, C, D, E) are cultivated at a constant temperature of 37° C. for 36 hours in a three gas incubator. The characteristic culture media are removed and placed in a natural environment for 30 minutes to observe whether there are discolorations at the point of the culture medium where the specimen is dropped in. […] Another 100 μL of the specimen is taken and coated on Columbia solid culture medium and cultivated in a three gas incubator at a constant temperature of 37° C. for 3 days to 5 days. The number of colonies on the plate is counted to determine the initial inoculation amount. The micro dilution method is adopted to test the MIC of clinical specimen H. pylori, the test is meaningful only when there is no bacterial growth in the negative control well without bacteria and there is bacterial growth in the positive well with bacteria but without antibiotics. […] The results are recorded and whether the micro dilution method and characteristic culture medium are consistent with each other in evaluating the drug resistance of clinical H. pylori strains is compared. […]
(2) Inoculation of bacterial solution: 10 μL bacterial solution is taken and added dropwise onto a characteristic culture medium with 5 pieces (ABCDE) in total.
(3) Culture: all plates are moved to a three gas incubator and cultivated at 37° C. for 36 hours. After being taken out and placed in a natural environment for 30 minutes, whether the bacteria have resistance is determined based on the discoloration of the characteristic culture medium.

H. pylori [2] = details: bacterial count 1×10^6 CFU/mL; cited from earlier work
[3] = tested on: clinical H. pylori strain; assay: Drug resistance testing of clinical specimens on characteristic culture medium (discoloration after 36 hours); type: cell-based, Helicobacter pylori
Procedure: The characteristic culture media (A, B, C, D, E) are cultivated at a constant temperature of 37° C. for 36 hours in a three gas incubator. The characteristic culture media are removed and placed in a natural environment for 30 minutes to observe whether there are discolorations at the point of the culture medium where the specimen is dropped in. […] Another 100 μL of the specimen is taken and coated on Columbia solid culture medium and cultivated in a three gas incubator at a constant temperature of 37° C. for 3 days to 5 days. The number of colonies on the plate is counted to determine the initial inoculation amount. The micro dilution method is adopted to test the MIC of clinical specimen H. pylori, the test is meaningful only when there is no bacterial growth in the negative control well without bacteria and there is bacterial growth in the positive well with bacteria but without antibiotics.
(1) Transfer liquid preparation: after sterilization and cooling, BHI culture medium is added with 10% calf serum, followed by 30% glycerol to prepare H. pylori preservation solution. On this basis, 1% H. pylori selective additive is added to prepare the transfer liquid. 1 mL of transfer solution is taken into a sterile EP tube, and 6-8 sterilized small steel balls are poured into the EP tube for the subsequent use.
(3) Specimen acquisition: a biopsy tissue group is obtained from the gastric antrum and a small curvature side of the gastric body through a gastroscopy biopsy passage and placed into an EP tube (strictly sterile operation). The biopsy tissue is placed on the ice surface and transferred as soon as possible (within 2 hours) to complete the subsequent steps.
(4) Preparation of bacterial solution containing tissue: the EP tube containing tissue is placed in a homogenizer at 300 hz and crushed for 5 minutes, transferred to another EP, centrifuged at 12000 rpm for 2 minutes, the supernatant is discarded, BHI is resuspended to 200 μL, and a bacterial suspension is prepared for the subsequent use.
(5) Inoculation of bacterial solution: 10 μL of bacterial solution is taken and added dropwise to the characteristic culture medium (5 pieces in total). The characteristic culture medium is removed after cultivating in a three gas incubator at 37° C. for 36 hours, and the results are determined after leaving for 30 minutes; another 100 μL is taken and coated onto Colombian culture medium for the traditional bacterial culture.

H. pylori [4] = assay: Effects of urea and phenol red on H. pylori on Columbia culture medium; type: cell-based, Helicobacter pylori

Compound | drug resistance determined by discoloration of characteristic culture medium (H. pylori [1]; strain 159, 1×10^6 CFU/mL) | drug resistance determined by discoloration of characteristic culture medium (H. pylori [1]; strain 286, 1×10^6 CFU/mL) | drug resistance determined by discoloration of characteristic culture medium (H. pylori [1]; strain 287, 1×10^6 CFU/mL) | drug resistance determined by discoloration of characteristic culture medium (H. pylori [1]; strain 289, 1×10^6 CFU/mL) | drug resistance determined by discoloration of characteristic culture medium (H. pylori [1]; strain G27, 1×10^6 CFU/mL) | resistance breakpoints of H. pylori according to CLSI guidelines (H. pylori [2]) [µg/mL] | drug resistance determined on characteristic culture medium ([3]; clinical H. pylori strain FY-31) | drug resistance determined on characteristic culture medium ([3]; clinical H. pylori strain FY-43) | drug resistance determined on characteristic culture medium ([3]; clinical H. pylori strain FY-47) | drug resistance determined on characteristic culture medium ([3]; clinical H. pylori strain FY-52) | effect on the growth of H. pylori (H. pylori [4]; phenol red 0.2 mg to 0.8 mg added separately to 50 mL Colombian culture medium) | effect on growth, identification and sensitivity of discoloration (H. pylori [4]; phenol red 0.2 mg with 80 mg of urea in Colombian culture medium) | effect on growth, identification and sensitivity of discoloration (H. pylori [4]; phenol red 0.4 mg with 80 mg of urea in Columbia culture medium) | effect on growth, identification and sensitivity of discoloration (H. pylori [4]; phenol red 0.8 mg with 80 mg of urea in Colombian culture medium)
C[C@H]1COc2c(N3CCN(C)CC3)c(F)cc3c(=O)c(C(=O)O)cn1c23 [Levofloxacin, levofloxacin] | developed resistance | have developed resistance | have developed resistance | have developed resistance | does not develop resistance | 2 | resistant | sensitive | sensitive | sensitive | – | – | – | –
O=S1(=O)OC(c2ccc(O)cc2)(c2ccc(O)cc2)c2ccccc21 [Phenol red, phenol red] | – | – | – | – | – | – | – | – | – | – | no effect on the growth of H. pylori | has no effect on the growth of H. pylori but has poor identification and non-good sensitivity | has no effect on the growth of H. pylori and has good identification and sensitivity | has no effect on the growth of H. pylori and has the optimum identification, but the sensitivity is not good
